Drawing on paper PMC12955860, this text covers binding for two molecules.

No constants are given. Whether binding was seen depends on the method and setting. Some entries that bind do so weakly or less than the wild type.

The experiment has as its target Nuclear factor I-B (human (endogenous in LX-2)) (UniProt O00712). Put plainly: Re-ChIP (sequential chromatin immunoprecipitation); LX-2 cells stimulated with TGF-β; chromatin cross-linked with 1% formaldehyde and sonicated to about 500 bp; immunoprecipitated with the indicated antibodies; CCL5 promoter read by real-time PCR.

B1: interferon regulatory transcription factor 3 (protein, UniProt Q14653 1-427)
chain: MGTPKPRILPWLVSQLDLGQLEGVAWVNKSRTRFRIPWKHGLRQDAQQEDFGIFQAWAEATGAYVPGRDKPDLPTWKRNFRSALNRKEGLRLAEDRSKDPHDPHKIYEFVNSGVGDFSQPDTSPDTNGGGSTSDTQEDILDELLGNMVLAPLPDPGPPSLAVAPEPCPQPLRSPSLDNPTPFPNLGPSENPLKRLLVPGEEWEFEVTAFYRGRQVFQQTISCPEGLRLVGSEVGDRTLPGWPVTLPDPGMSLTDRGVMSYVRHVLSCLGGGLALWRAGQWLWAQRLGHCHTYWAVSEELLPNSGHGPDGEVPKDKEGGVFDLGPFIVDLITFTEGSGRSPRYALWFCVGESWPQDQPWTKRLVMVKVVPTCLRALVEMARVGGASSLENTVDLHISNSHPLSLTSDQYKAYLQDLVEGMDFQGPGES
Consider B1, for which the binding result was “binds”.

B2: interferon regulatory transcription factor 8 (protein, UniProt Q02556 1-426)
chain: MCDRNGGRRLRQWLIEQIDSSMYPGLIWENEEKSMFRIPWKHAGKQDYNQEVDASIFKAWAVFKGKFKEGDKAEPATWKTRLRCALNKSPDFEEVTDRSQLDISEPYKVYRIVPEEEQKCKLGVATAGCVNEVTEMECGRSEIDELIKEPSVDDYMGMIKRSPSPPEACRSQLLPDWWAQQPSTGVPLVTGYTTYDAHHSAFSQMVISFYYGGKLVGQATTTCPEGCRLSLSQPGLPGTKLYGPEGLELVRFPPADAIPSERQRQVTRKLFGHLERGVLLHSSRQGVFVKRLCQGRVFCSGNAVVCKGRPNKLERDEVVQVFDTSQFFRELQQFYNSQGRLPDGRVVLCFGEEFPDMAPLRSKLILVQIEQLYVRQLAEEAGKSCGAGSVMQAPEEPPPDQVFRMFPDICASHQRSFFRENQQITV
Consider B2, for which the binding entry is “no binding”.
